Laboratory results: PubChem BioAssay AID1224829 (NIAID, 2016)
This is an unselected part of about 3,800 reagents. 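Calls cover raised and lowered translocation; gene median uses one vendor's three siRNAs; qiagen siRNAs acted more weakly than ambion siRNAs.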 The numbers tell different reagents against one gene apart.

- Test: 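Genes needed for LPS-driven NF-kappaB p65 nuclear entry in mouse macrophages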 (follow-up of hits)
- System: mouse RAW264.7 G9 macrophage reporter cells
- Knock-down reagent: single siRNA against mouse genes, 100 nM
- Time to read-out: 2 days of siRNA knock-down, then 40 min of LPS before fixing
- Treatment: LPS (Salmonella minnesota R595) at 10 ng/ml
- Measured: 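High-content images after 40 min LPS exposure; GFP-p65 nucleus to surrounding ring signal ratio, normalised to plate median and non-targeting control wells, expressed as z-score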
- Scale: p65 translocation z-score and gene median z-score, per vendor: higher = more nuclear NF-kappaB p65 after LPS
- Call rule: 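An siRNA is called active when the mean z-score of its two replicates is above 2 or below -2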
- Calls: active = changed p65 translocation (either direction); inactive = no clear change

{"gene knocked down": "Ctcf", "siRNA no.": 1, "siRNA vendor or control pool": "ambion single siRNA", "p65 translocation z-score, replicate mean": -1.62, "p65 translocation z-score, replicate 1": 0.578, "p65 translocation z-score, replicate 2": -3.83, "gene median z-score, per vendor": -3.38, "call": "inactive"}
{"gene knocked down": "Ctcf", "siRNA no.": 2, "siRNA vendor or control pool": "ambion single siRNA", "p65 translocation z-score, replicate mean": -2.81, "p65 translocation z-score, replicate 1": -2.94, "p65 translocation z-score, replicate 2": -2.68, "gene median z-score, per vendor": -3.38, "call": "active"}
{"gene knocked down": "Ctcf", "siRNA no.": 3, "siRNA vendor or control pool": "ambion single siRNA", "p65 translocation z-score, replicate mean": -7.46, "p65 translocation z-score, replicate 1": -6.7, "p65 translocation z-score, replicate 2": -8.22, "gene median z-score, per vendor": -3.38, "call": "active"}
{"gene knocked down": "Ctcf", "siRNA no.": 4, "siRNA vendor or control pool": "qiagen single siRNA", "p65 translocation z-score, replicate mean": 0.592, "p65 translocation z-score, replicate 1": 0.14, "p65 translocation z-score, replicate 2": 1.04, "gene median z-score, per vendor": -2.48, "call": "inactive"}
{"gene knocked down": "Ctcf", "siRNA no.": 5, "siRNA vendor or control pool": "qiagen single siRNA", "p65 translocation z-score, replicate mean": -3.37, "p65 translocation z-score, replicate 1": -2.85, "p65 translocation z-score, replicate 2": -3.89, "gene median z-score, per vendor": -2.48, "call": "active"}
{"gene knocked down": "Ctcf", "siRNA no.": 6, "siRNA vendor or control pool": "qiagen single siRNA", "p65 translocation z-score, replicate mean": -2.99, "p65 translocation z-score, replicate 1": -2.11, "p65 translocation z-score, replicate 2": -3.86, "gene median z-score, per vendor": -2.48, "call": "active"}
{"gene knocked down": "Kash5", "siRNA no.": 1, "siRNA vendor or control pool": "ambion single siRNA", "p65 translocation z-score, replicate mean": -0.645, "p65 translocation z-score, replicate 1": -0.274, "p65 translocation z-score, replicate 2": -1.02, "gene median z-score, per vendor": 0.14, "call": "inactive"}
{"gene knocked down": "Kash5", "siRNA no.": 2, "siRNA vendor or control pool": "ambion single siRNA", "p65 translocation z-score, replicate mean": 0.143, "p65 translocation z-score, replicate 1": 0.353, "p65 translocation z-score, replicate 2": -0.0667, "gene median z-score, per vendor": 0.14, "call": "inactive"}
{"gene knocked down": "Kash5", "siRNA no.": 3, "siRNA vendor or control pool": "ambion single siRNA", "p65 translocation z-score, replicate mean": 0.531, "p65 translocation z-score, replicate 1": 0.716, "p65 translocation z-score, replicate 2": 0.346, "gene median z-score, per vendor": 0.14, "call": "inactive"}
{"gene knocked down": "Kash5", "siRNA no.": 4, "siRNA vendor or control pool": "qiagen single siRNA", "p65 translocation z-score, replicate mean": -2.34, "p65 translocation z-score, replicate 1": -1.28, "p65 translocation z-score, replicate 2": -3.4, "gene median z-score, per vendor": -0.528, "call": "active"}
{"gene knocked down": "Kash5", "siRNA no.": 5, "siRNA vendor or control pool": "qiagen single siRNA", "p65 translocation z-score, replicate mean": -0.528, "p65 translocation z-score, replicate 1": -0.528, "gene median z-score, per vendor": -0.528, "call": "inactive"}
{"gene knocked down": "Kash5", "siRNA no.": 6, "siRNA vendor or control pool": "qiagen single siRNA", "p65 translocation z-score, replicate mean": 3.04, "p65 translocation z-score, replicate 1": 1.03, "p65 translocation z-score, replicate 2": 5.05, "gene median z-score, per vendor": -0.528, "call": "active"}
{"gene knocked down": "Snrnp35", "siRNA no.": 1, "siRNA vendor or control pool": "ambion single siRNA", "p65 translocation z-score, replicate mean": -1.97, "p65 translocation z-score, replicate 1": -1.62, "p65 translocation z-score, replicate 2": -2.32, "gene median z-score, per vendor": -0.469, "call": "inactive"}
{"gene knocked down": "Snrnp35", "siRNA no.": 2, "siRNA vendor or control pool": "ambion single siRNA", "p65 translocation z-score, replicate mean": 1.87, "p65 translocation z-score, replicate 1": 3.07, "p65 translocation z-score, replicate 2": 0.679, "gene median z-score, per vendor": -0.469, "call": "inactive"}
{"gene knocked down": "Snrnp35", "siRNA no.": 3, "siRNA vendor or control pool": "ambion single siRNA", "gene median z-score, per vendor": -0.469, "call": "inactive"}
{"gene knocked down": "Snrnp35", "siRNA no.": 4, "siRNA vendor or control pool": "qiagen single siRNA", "p65 translocation z-score, replicate mean": -0.708, "p65 translocation z-score, replicate 1": -1.72, "p65 translocation z-score, replicate 2": 0.301, "gene median z-score, per vendor": -0.142, "call": "inactive"}
{"gene knocked down": "Snrnp35", "siRNA no.": 5, "siRNA vendor or control pool": "qiagen single siRNA", "p65 translocation z-score, replicate mean": -1.24, "p65 translocation z-score, replicate 1": -1.24, "gene median z-score, per vendor": -0.142, "call": "inactive"}
{"gene knocked down": "Snrnp35", "siRNA no.": 6, "siRNA vendor or control pool": "qiagen single siRNA", "p65 translocation z-score, replicate mean": 0.236, "p65 translocation z-score, replicate 1": -0.142, "p65 translocation z-score, replicate 2": 0.615, "gene median z-score, per vendor": -0.142, "call": "inactive"}
{"gene knocked down": "Syn2", "siRNA no.": 1, "siRNA vendor or control pool": "ambion single siRNA", "p65 translocation z-score, replicate mean": 2.59, "p65 translocation z-score, replicate 1": 3.63, "p65 translocation z-score, replicate 2": 1.55, "gene median z-score, per vendor": 1.58, "call": "active"}
{"gene knocked down": "Syn2", "siRNA no.": 2, "siRNA vendor or control pool": "ambion single siRNA", "p65 translocation z-score, replicate mean": 1.28, "p65 translocation z-score, replicate 1": 3.53, "p65 translocation z-score, replicate 2": -0.977, "gene median z-score, per vendor": 1.58, "call": "inactive"}
{"gene knocked down": "Syn2", "siRNA no.": 3, "siRNA vendor or control pool": "ambion single siRNA", "p65 translocation z-score, replicate mean": 0.772, "p65 translocation z-score, replicate 1": 1.62, "p65 translocation z-score, replicate 2": -0.0708, "gene median z-score, per vendor": 1.58, "call": "inactive"}
{"gene knocked down": "Syn2", "siRNA no.": 4, "siRNA vendor or control pool": "qiagen single siRNA", "p65 translocation z-score, replicate mean": 3.77, "p65 translocation z-score, replicate 1": 4.11, "p65 translocation z-score, replicate 2": 3.42, "gene median z-score, per vendor": 1.78, "call": "active"}
{"gene knocked down": "Syn2", "siRNA no.": 5, "siRNA vendor or control pool": "qiagen single siRNA", "p65 translocation z-score, replicate mean": -3.24, "p65 translocation z-score, replicate 1": -3.24, "gene median z-score, per vendor": 1.78, "call": "active"}
{"gene knocked down": "Syn2", "siRNA no.": 6, "siRNA vendor or control pool": "qiagen single siRNA", "p65 translocation z-score, replicate mean": 1.3, "p65 translocation z-score, replicate 1": 0.815, "p65 translocation z-score, replicate 2": 1.78, "gene median z-score, per vendor": 1.78, "call": "inactive"}
{"gene knocked down": "Ndufaf4", "siRNA no.": 1, "siRNA vendor or control pool": "ambion single siRNA", "p65 translocation z-score, replicate mean": -2.42, "p65 translocation z-score, replicate 1": -3.27, "p65 translocation z-score, replicate 2": -1.57, "gene median z-score, per vendor": -3.12, "call": "active"}
{"gene knocked down": "Ndufaf4", "siRNA no.": 2, "siRNA vendor or control pool": "ambion single siRNA", "p65 translocation z-score, replicate mean": -0.446, "p65 translocation z-score, replicate 1": 2.09, "p65 translocation z-score, replicate 2": -2.98, "gene median z-score, per vendor": -3.12, "call": "inactive"}
{"gene knocked down": "Ndufaf4", "siRNA no.": 3, "siRNA vendor or control pool": "ambion single siRNA", "p65 translocation z-score, replicate mean": -7.16, "p65 translocation z-score, replicate 1": -5.24, "p65 translocation z-score, replicate 2": -9.09, "gene median z-score, per vendor": -3.12, "call": "active"}
{"gene knocked down": "Ndufaf4", "siRNA no.": 4, "siRNA vendor or control pool": "qiagen single siRNA", "p65 translocation z-score, replicate mean": 1.9, "p65 translocation z-score, replicate 1": 1.31, "p65 translocation z-score, replicate 2": 2.49, "gene median z-score, per vendor": 0.56, "call": "inactive"}
{"gene knocked down": "Ndufaf4", "siRNA no.": 5, "siRNA vendor or control pool": "qiagen single siRNA", "p65 translocation z-score, replicate mean": 1.41, "p65 translocation z-score, replicate 1": -0.191, "p65 translocation z-score, replicate 2": 3.01, "gene median z-score, per vendor": 0.56, "call": "inactive"}
{"gene knocked down": "Ndufaf4", "siRNA no.": 6, "siRNA vendor or control pool": "qiagen single siRNA", "p65 translocation z-score, replicate mean": -2.73, "p65 translocation z-score, replicate 1": -3.32, "p65 translocation z-score, replicate 2": -2.15, "gene median z-score, per vendor": 0.56, "call": "active"}

3 entries from above, sorted by “gene median z-score, per vendor”, lowest first:
{"gene knocked down": "Ndufaf4", "siRNA no.": 1, "siRNA vendor or control pool": "ambion single siRNA", "p65 translocation z-score, replicate mean": -2.42, "p65 translocation z-score, replicate 1": -3.27, "p65 translocation z-score, replicate 2": -1.57, "gene median z-score, per vendor": -3.12, "call": "active"}
{"gene knocked down": "Syn2", "siRNA no.": 5, "siRNA vendor or control pool": "qiagen single siRNA", "p65 translocation z-score, replicate mean": -3.24, "p65 translocation z-score, replicate 1": -3.24, "gene median z-score, per vendor": 1.78, "call": "active"}
{"gene knocked down": "Syn2", "siRNA no.": 6, "siRNA vendor or control pool": "qiagen single siRNA", "p65 translocation z-score, replicate mean": 1.3, "p65 translocation z-score, replicate 1": 0.815, "p65 translocation z-score, replicate 2": 1.78, "gene median z-score, per vendor": 1.78, "call": "inactive"}
